Test results taken from publication PMC4392834.
These are yes or no findings as the source states them, for the method shown. In cells and extracts the contact can be indirect. Some binding calls cover weakened binding; strength is not graded here.

The chains behind the UniProt entries cited, without tags or fusion partners.
UniProt P29555: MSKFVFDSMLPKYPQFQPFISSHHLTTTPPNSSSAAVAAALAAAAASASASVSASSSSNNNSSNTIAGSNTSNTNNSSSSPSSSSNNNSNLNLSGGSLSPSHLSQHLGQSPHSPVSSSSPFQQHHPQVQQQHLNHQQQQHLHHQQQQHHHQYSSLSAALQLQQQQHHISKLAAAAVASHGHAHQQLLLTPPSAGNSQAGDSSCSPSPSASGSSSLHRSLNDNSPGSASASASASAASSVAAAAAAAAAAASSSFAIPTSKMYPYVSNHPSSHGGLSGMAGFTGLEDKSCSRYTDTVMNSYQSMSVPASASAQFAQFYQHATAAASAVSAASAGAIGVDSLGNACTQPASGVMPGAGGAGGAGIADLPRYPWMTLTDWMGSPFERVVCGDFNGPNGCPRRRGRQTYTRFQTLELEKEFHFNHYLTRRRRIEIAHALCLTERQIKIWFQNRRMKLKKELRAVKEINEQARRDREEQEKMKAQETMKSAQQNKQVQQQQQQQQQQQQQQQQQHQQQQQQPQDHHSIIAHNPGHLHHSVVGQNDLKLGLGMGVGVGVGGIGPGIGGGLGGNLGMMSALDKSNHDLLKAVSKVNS
UniProt P83949: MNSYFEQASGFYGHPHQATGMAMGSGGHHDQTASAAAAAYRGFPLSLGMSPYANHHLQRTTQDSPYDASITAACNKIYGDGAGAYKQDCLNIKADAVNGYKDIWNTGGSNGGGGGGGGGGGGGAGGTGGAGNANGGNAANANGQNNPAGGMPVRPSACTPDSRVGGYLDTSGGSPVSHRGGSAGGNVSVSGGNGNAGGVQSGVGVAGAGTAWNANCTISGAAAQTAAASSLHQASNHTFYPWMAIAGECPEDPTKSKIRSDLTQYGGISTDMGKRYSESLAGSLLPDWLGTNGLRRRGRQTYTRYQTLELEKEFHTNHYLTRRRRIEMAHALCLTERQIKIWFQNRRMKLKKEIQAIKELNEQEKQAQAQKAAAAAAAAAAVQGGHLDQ
UniProt P09077: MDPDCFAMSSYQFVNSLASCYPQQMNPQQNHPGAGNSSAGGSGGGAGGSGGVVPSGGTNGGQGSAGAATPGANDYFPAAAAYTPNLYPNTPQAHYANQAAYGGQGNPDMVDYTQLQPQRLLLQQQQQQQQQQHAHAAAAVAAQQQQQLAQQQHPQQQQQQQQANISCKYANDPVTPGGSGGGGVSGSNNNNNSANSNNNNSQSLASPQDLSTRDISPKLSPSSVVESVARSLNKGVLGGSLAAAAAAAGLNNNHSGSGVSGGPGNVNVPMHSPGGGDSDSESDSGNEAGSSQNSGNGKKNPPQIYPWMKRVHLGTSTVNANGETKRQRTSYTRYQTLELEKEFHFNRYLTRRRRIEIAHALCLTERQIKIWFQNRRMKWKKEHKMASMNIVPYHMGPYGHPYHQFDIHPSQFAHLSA

B1: VN-Serpent (protein, UniProt P52172 1-1264)
chain: MTKTTKPKEKAAAGGAVIGSGSGLGSVTKAGGGSLLSNAADSKIRTAKSNNNKRQAGRAATALAATTTASALAATTTAGATGSNAAANETEIAIETENGEAATPTAAATAAAANLSSLESARSQALTSVVSETARQAVTTANASATSTSTVTAATEIATATASDTAATSEAAIDDDPSAINTNNNNNNSKAQNDASESVKTKVISYHQSEDQQQQQQQQAQIYEQQQQFLSQQLISHHQQEQHQQAQQQQHQQVVQEQHQASWLAYDLTSGSAAAAAAAAAAASHPHLFGQFSYPPSHHTPTQLYEHYPSTDPIMRNNFAFYSVYTGGGGGVGVGMTSHEHLAAAAAAAAAVAQGTTPNIDEVIQDTLKDECFEDGHSTDYHVLTSVSDMHTLKDSSPYALTHEQLHQQQHHHQQQLHHHQQQQQQLYHQQQQQQQQQQHHHHHNNSTSSAGGDSPSSSHALSTLQSFTQLTSATQRDSLSPENDAYFAAAQLGSSLQNSSVYAGSLLTQTANGIQYGMQSPNQTQAHLQQQHHQQQQQQHQQHQQQQLQQQQQQHHHNQHQHHNSSSSSPGPAGLHHSSSSAATAAAVAAATAAVNGHNSSLEDGYGSPRSSHSGGGGGGTLPAFQRIAYPNSGSVERYAPITNYRGQNDTWFDPLSYATSSSGQAQLGVGVGAGVVSNVIRNGRAISAANAAAAAAADGTTGRVDPGTFLSASASLSAMAAESGGDFYKPNSFNVGGGGRSKANTSGAASSYSCPGSNATSAATSAVASGTAATAATTLDEHVSRANSRRLSASKRAGLSCSNCHTTHTSLWRRNPAGEPVCNACGLYYKLHSVPRPLTMKKDTIQKRKRKPKGTKSEKSKSKSKNALNAIMESGSLVTNCHNVGVVLDSSQMDVNDDMKPQLDLKPYNSYSSQPQQQLPQYQQQQQLLMADQHSSAASSPHSMGSTSLSPSAMSHQHQTHPHQQQQQQLCSGLDMSPNSNYQMSPLNMQQHQQQQSCSMQHSPSTPTSIFNTPSPTHQLHNNNNNNNNSSIFNNNNNNNSSSNENNNKLIQKYLQAQQLSSSSNSGSTSDHQLLAQLLPNSITAAAAAAAAAAAAAIKTEALSLTSQANCSTASAGLMVTSTPTTASSTLSSLSHSNIISLQNPYHQAGMTLCKPTRPSPPYYLTPEEDEQPALIKMEEMDQSQQQQQQQQHQQQQHGEIMLSRSASLDEHYELAAFQRHQQQQQQLQQQTAALLGQHEQHVTNYAMHKFGVDRETVVKME
B2: VN-Eyes absent (protein, UniProt Q05201 1-766)
chain: MVTLMPYNYAAPRCGLIDKMIEPKVKRPKTDHTDTHERNRLCNLSQQQQQQQPQQQQTHQQQQQQQQQSHQQSHSSTVLASNGPSSAGAGMGVGVGGGGGSGGGVGGGVGQCSPLGLPPQSQPLQPTIGSLASLSGHYSNGNANPNVNSSSCSLATASSFAQSAGSSFSTYQQAGGTSGGVSGEDGVVGGATVMSHWTHDGTGSSAAVKSESRSPGQVHASLDNGSVAGSNLYGCSSASNPLDGGAVAVNSSAVAAAAAAVYDGKHDYYYYNSMQQYTPPPFYSGYGTPYAAATAARQAKMEPGAAAAAAAYLTPSYAASGNNNSQLYSSPYAGYNNFGQQDYGGYYNEQYGNYYSPANYSPYAVSSPSSSASHGHGFHVAASSNLSESPTDTHSTTPVHQTTHSPHSPLPISPSTGSGIGPLGNVSAAAAAAALNSSGGSSVGTAGSGGVATSKTTPTGKTGRARGRRHQQPSPTRSTASDTGNSEAVKPPERVFVWDLDETLIIFHTLLSGSYANRYTKDHSSLMTIAFRMEEMVFNMADTHFFFNEIEECDQVHIDDVSSDDNGQDLSAYNFATDGFHTNTPPGAPPNLCLPTGVRGGVDWMRKLAFRYRKIKDIYNSYRGNVGTLLGPGKREAWLQIRSEIEVATDNWATLALKCLSMISQRENCVNVLVTSTQLAPALAKVLLFGLGGIFNIENIYSAHKIGHETCYERIVTRFGRKSTYVVIGDGNEEETAAKAMNFPFWRISAHSDIRALYTALDMGFL
B3: VN-Pan (protein, UniProt P91943 1-751)
chain: MPHTHSRHGSSGDDLCSTDEVKIFKDEGDREDEKISSENLLVEEKSSLIDLTESEEKGHKISRPDHSPVFNKLDTHAPSFNMGYLVSPYSYANGSPSGLPVTMANKIGLPPFFCHNADPLSTPPPAHCGIPPYQLDPKMGLTRPALYPFAGGQYPYPMLSSDMSQVASWHTPSVYSASSFRTPYPSSLPINTTLASDFPFRFSPSLLPSVHATSHHVINAHSAIVGVSSKQECGVQDPTTNNRYPRNLEAKHTSNAQSNESKETTNDKKKPHIKKPLNAFMLYMKEMRAKVVAECTLKESAAINQILGRRWHELSREEQSKYYEKARQERQLHMELYPGWSARDNYGYVSKKKKRKKDRSTTDSGGNNMKKCRARFGLDQQSQWCKPCRRKKKCIRYMEALNGNGPAEDGSCFDEHGSQLSDDDEDDYDDDKLGGSCGSADETNKIEDEDSESLNQSMPSPGCLSGLSSLQSPSTTMSLASPLNMNANSATNVIFPASSNALLIVGADQPTAQQRPTLVSTSGSSSGSTSSISTTPNTSSTVSPVTCMTGPCLGSSQERAMMLGNRFSHLGMGLSPPVVSTSTSKSEPFFKPHPTVCNNPIFALPSIGNCSLNISSMPNTSRNPIGANPRDINNPLSINQLTKRREYKNVELIEASESKTIVAHAATSIIQHVAVNGYHANHSLLNSNLGHLHHQLNNRTENPNRSEQTMLSVSNHSVNSSECHKESDSQAIVSSNPPNAGSSDNGVISVS
B4: VN-Spalt major (protein, UniProt P39770 1-1365)
chain: MKNHLSNVLCAMRSDFKDNHQETINKMIQFGTVKYGIVKQLKDRARSADKDIGSDQEENGGCSPLTTATTTASPSRSPEPEEEQPEEQSTSEQSIPEQSTPDHQLENDIKSEAKSEIEPVEDNNNRVAMTKPSSEEREPNASGSMPSSPVAEASAEEAATERTPEKEKEKDVEVDVEKPDEAPSSAVPSTEVTLPGGAGAPVTLEAIQNMQMAIAQFAAKTIANGSNGADNEAAMKQLAFLQQTLFNLQQQQLFQIQLIQQLQSQLALNQAKQEEDTEEDADQEQDQEQETDTYEEEERIADMELRQKAEARMAEAKARQHLINAGVPLRESSGSPAESLKRRREHDHESQPNRRPSLDNTHKADTAQDALAKLKEMENTPLPFGSDLASSIITNHDDLPEPNSLDLLQKRAQEVLDSASQGILANSMADDFAFGEKSGEGKGRNEPFFKHRCRYCGKVFGSDSALQIHIRSHTGERPFKCNVCGSRFTTKGNLKVHFQRHAQKFPHVPMNATPIPEHMDKFHPPLLDQMSPTDSSPNHSPAPPPLGSAPASFPPAFPGLQNLYRPPMEILKSLGAAAPHQYFPQELPTDLRKPSPQLDEDEPQVKNEPVEEKDQREEHEQEMAECSEPEPEPLPLEVRIKEERVEEQEQVKQEDHRIEPRRTPSPSSEHRSPHHHRHSHMGYPPVVQPIQPAALMHPQSSPGSQSHLDHLPTPGQLPPREDFFAERFPLNFTTAKMLSPEHHSPVRSPAGGALPPGVPPPPHHHPHHMARSPFFNPIKHEMAALLPRPHSNDNSWENFIEVSNTCETMKLKELMKNKKISDPNQCVVCDRVLSCKSALQMHYRTHTGERPFKCRICGRAFTTKGNLKTHMAVHKIRPPMRNFHQCPVCHKKYSNALVLQQHIRLHTGEPTDLTPEQIQAAEIRDPPPSMMPGHFMNPFAAAAFHFGALPGGPGGPPGPNHGAHNGALGSESSQGDMDDNMDCGEDYDDDVSSEHLSNSNLEQEGDRSRSGDDFKSLLFEQKLRIDATGVVNTNPVRPRSSASSHGHSVGSTSAPTSPSVHASSQVIKRSSSPARSEASQGALDLTPRAAPTSSSSSRSPLPKEKPVSPPSLPRSPSGSSHASANILTSPLPPTVGIDCLPPGLQHHLQQQHQHLMQQQAAVAAAAAAQHHHHQQMAALHQHQEQLRREAAEAQQKAAAAAAAAAAAAAAQRQTPPQARDQRQEGGPGAGPPPNPLMGARPPFGMFPNLPLFPPATTQNMCNAMNQIAQSVMPAAPFNPLALSGVRGSTTCGICYKTFPCHSALEIHYRSHTKERPFKCSICDRGFTTKGNLKQHMLTHKIRDMEQETFRNRAVKYMSEWNEDRE
B5: VN-Knirps (protein, UniProt P10734 1-429)
chain: MNQTCKVCGEPAAGFHFGAFTCEGCKSFFGRSYNNISTISECKNEGKCIIDKKNRTTCKACRLRKCYNVGMSKGGSRYGRRSNWFKIHCLLQEHEQAAAAAGKAPPLAGGVSVGGAPSASSPVGSPHTPGFGDMAAHLHHHHQQQQQQQVPRHPHMPLLGYPSYLSDPSAALPFFSMMGGVPHQSPFQLPPHLLFPGYHASAAAAAASAADAAYRQEMYKHRQSVDSVESQNRFSPASQPPVVQPTSSARQSPIDVCLEEDVHSVHSHQSSASLLHPIAIRATPTTPTSSSPLSFAAKMQSLSPVSVCSIGGETTSVVPVHPPTVSAQEGPMDLSMKTSRSSVHSFNDSGSEDQEVEVAPRRKFYQLEAECLTTSSSSSSHSAAHSPNTTTAHAEVKRQKLGGAEATHFGGFAVAHNAASAMRGIFVCV
B6: VN-Mef2 (protein, UniProt P40791 1-540)
chain: MGRKKIQISRITDERNRQVTFNKRKFGVMKKAYELSVLCDCEIALIIFSSSNKLYQYASTDMDRVLLKYTEYNEPHESLTNKNIIEKENKNGVMSPDSPEAETDYTLTPRTEAKYNKIDEEFQNMMQRNQMAIGGAGAPRQLPNSSYTLPVSVPVPGSYGDNLLQASPQMSHTNISPRPSSSETDSGGMSLIIYPSGSMLEMSNGYPHSHSPLVGSPSPGPSPGIAHHLSIKQQSPGSQNGRASNLRVVIPPTIAPIPPNMSAPDDVGYADQRQSQTSLNTPVVTLQTPIPALTSYSFGAQDFSSSGVMNSADIMSLNTWHQGLVPHSSLSHLAVSNSTPPPATSPVSIKVKAEPQSPPRDLSASGHQQNSNGSTGSGGSSSSTSSNASGGAGGGGAVSAANVITHLNNVSVLAGGPSGQGGGGGGGGSNGNVEQATNLSVLSHAQQHHLGMPNSRPSSTGHITPTPGHDKYEGYPYRALMGHNPRWNLNFAGAPSSDQDVRLAAVAVQQQQQQPHQQQQLGDYDAPNHKRPRISGGWGT

What was measured:
Assay in all cases: split reporter; Venus BiFC: VC-Hox and VN-TF co-expressed in live Drosophila embryos with the corresponding Hox-Gal4 driver (abdA-Gal4 for AbdA); epidermis, stage 10-12, quantified at stage 10; affected if equal or lower than 50% of wild type, stronger if 120% or more
[1] = molecular target: VC-AbdA (Drosophila melanogaster) (UniProt P29555)
[2] = molecular target: VC-Ubx (Drosophila melanogaster) (UniProt P83949)
[3] = molecular target: VC-Scr (Drosophila melanogaster) (UniProt P09077)
[4] = molecular target: VC-AbdB (Drosophila melanogaster) (UniProt P09087)

| Binder | binding [2] | binding [3] | binding [4] | other results |
| --- | --- | --- | --- | --- |
| B1 | no binding |  |  | binding [1]: binds |
| B2 | no binding | no binding |  |  |
| B3 |  |  | no binding |  |
| B4 |  |  | no binding |  |
| B5 |  | no binding |  |  |
| B6 |  | no binding |  |  |
